In publication PMC6021376:
These are yes or no findings as the source states them, for the method shown. In cells and extracts the contact can be indirect. Some binding calls cover weakened binding; strength is not graded here.

By UniProt entry, the sequences of proteins in these tests, tags left out.
UniProt P23804: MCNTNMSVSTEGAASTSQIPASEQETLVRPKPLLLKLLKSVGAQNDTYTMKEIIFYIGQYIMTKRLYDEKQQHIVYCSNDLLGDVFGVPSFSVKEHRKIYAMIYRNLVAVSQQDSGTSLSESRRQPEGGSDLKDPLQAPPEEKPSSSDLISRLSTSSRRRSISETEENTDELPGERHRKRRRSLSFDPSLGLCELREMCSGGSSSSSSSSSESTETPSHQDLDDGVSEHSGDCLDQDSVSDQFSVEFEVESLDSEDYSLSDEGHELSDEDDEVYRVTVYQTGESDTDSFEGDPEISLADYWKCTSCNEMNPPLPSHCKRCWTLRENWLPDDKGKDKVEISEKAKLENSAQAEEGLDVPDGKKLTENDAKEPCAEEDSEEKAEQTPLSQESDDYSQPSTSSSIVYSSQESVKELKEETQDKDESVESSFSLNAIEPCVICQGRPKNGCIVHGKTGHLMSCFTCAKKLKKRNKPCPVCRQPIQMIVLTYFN
UniProt O09106: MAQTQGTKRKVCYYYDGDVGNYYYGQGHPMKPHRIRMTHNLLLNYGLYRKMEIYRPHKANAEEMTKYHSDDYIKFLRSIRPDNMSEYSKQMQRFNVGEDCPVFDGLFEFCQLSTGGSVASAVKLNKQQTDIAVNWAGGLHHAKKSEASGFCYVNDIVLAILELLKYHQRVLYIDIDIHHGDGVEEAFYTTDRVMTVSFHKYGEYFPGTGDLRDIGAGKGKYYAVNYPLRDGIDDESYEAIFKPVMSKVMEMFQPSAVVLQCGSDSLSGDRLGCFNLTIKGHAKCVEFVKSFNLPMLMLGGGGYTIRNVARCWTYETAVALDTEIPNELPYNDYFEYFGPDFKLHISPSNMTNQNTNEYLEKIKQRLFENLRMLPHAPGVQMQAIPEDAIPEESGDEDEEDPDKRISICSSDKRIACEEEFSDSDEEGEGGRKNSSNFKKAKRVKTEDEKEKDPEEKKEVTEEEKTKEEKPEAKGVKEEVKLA

Molecular target: MDM2 (mouse (endogenous in NPCs from the dentate gyrus)) (UniProt P23804)
Assay: co-IP; Pierce Co-IP kit; monoclonal antibody against HDAC1 or MDM2 coupled to AminoLink Plus resin, IgG as negative control; pre-cleared NPC lysate (1 mg protein) in 25 mM Tris, 150 mM NaCl, 1 mM EDTA, 1% NP-40, 5% glycerol, pH 7.4; 4 °C for 2 h; blots probed with anti-MDM2 or anti-HDAC1

## histone deacetylase HDAC1 (from UniProt O09106 1-482)
  binding: binds
